# Experimental data: paper PMC12457610
# These are yes or no findings as the source states them, for the method shown. Some binding calls cover weakened binding; strength is not graded here.
# Target: GndR (Lpg1604), RES domain-containing predicted toxin of the GndRX system (Legionella pneumophila) (UniProt Q5ZV38)
# Assay: two-hybrid
substance,measurement,value
"GndX (Lpg1605), Xre domain-containing predicted antitoxin of the GndRX system (from UniProt Q5ZV37 36-159)",binding,binds
